Among the data in article PMC11009412, “Pathogenic mutations of human phosphorylation sites affect protein–protein interactions” (Nature Communications, 2024) are binding values, retold here.

Chains of the proteins cited; added tags and fusions are not shown.
UniProt Q09028: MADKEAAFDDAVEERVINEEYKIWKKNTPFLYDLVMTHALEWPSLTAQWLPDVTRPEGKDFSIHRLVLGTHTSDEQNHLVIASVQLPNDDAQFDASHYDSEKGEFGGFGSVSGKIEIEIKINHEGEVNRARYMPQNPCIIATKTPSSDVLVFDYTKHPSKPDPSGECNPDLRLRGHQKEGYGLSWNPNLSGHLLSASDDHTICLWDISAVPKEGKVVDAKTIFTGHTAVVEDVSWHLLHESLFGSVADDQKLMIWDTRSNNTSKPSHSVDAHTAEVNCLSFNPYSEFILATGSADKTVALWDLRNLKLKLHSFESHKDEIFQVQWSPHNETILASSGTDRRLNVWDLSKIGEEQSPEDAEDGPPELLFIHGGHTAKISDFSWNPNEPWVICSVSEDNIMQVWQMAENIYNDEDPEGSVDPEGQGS
UniProt P49792: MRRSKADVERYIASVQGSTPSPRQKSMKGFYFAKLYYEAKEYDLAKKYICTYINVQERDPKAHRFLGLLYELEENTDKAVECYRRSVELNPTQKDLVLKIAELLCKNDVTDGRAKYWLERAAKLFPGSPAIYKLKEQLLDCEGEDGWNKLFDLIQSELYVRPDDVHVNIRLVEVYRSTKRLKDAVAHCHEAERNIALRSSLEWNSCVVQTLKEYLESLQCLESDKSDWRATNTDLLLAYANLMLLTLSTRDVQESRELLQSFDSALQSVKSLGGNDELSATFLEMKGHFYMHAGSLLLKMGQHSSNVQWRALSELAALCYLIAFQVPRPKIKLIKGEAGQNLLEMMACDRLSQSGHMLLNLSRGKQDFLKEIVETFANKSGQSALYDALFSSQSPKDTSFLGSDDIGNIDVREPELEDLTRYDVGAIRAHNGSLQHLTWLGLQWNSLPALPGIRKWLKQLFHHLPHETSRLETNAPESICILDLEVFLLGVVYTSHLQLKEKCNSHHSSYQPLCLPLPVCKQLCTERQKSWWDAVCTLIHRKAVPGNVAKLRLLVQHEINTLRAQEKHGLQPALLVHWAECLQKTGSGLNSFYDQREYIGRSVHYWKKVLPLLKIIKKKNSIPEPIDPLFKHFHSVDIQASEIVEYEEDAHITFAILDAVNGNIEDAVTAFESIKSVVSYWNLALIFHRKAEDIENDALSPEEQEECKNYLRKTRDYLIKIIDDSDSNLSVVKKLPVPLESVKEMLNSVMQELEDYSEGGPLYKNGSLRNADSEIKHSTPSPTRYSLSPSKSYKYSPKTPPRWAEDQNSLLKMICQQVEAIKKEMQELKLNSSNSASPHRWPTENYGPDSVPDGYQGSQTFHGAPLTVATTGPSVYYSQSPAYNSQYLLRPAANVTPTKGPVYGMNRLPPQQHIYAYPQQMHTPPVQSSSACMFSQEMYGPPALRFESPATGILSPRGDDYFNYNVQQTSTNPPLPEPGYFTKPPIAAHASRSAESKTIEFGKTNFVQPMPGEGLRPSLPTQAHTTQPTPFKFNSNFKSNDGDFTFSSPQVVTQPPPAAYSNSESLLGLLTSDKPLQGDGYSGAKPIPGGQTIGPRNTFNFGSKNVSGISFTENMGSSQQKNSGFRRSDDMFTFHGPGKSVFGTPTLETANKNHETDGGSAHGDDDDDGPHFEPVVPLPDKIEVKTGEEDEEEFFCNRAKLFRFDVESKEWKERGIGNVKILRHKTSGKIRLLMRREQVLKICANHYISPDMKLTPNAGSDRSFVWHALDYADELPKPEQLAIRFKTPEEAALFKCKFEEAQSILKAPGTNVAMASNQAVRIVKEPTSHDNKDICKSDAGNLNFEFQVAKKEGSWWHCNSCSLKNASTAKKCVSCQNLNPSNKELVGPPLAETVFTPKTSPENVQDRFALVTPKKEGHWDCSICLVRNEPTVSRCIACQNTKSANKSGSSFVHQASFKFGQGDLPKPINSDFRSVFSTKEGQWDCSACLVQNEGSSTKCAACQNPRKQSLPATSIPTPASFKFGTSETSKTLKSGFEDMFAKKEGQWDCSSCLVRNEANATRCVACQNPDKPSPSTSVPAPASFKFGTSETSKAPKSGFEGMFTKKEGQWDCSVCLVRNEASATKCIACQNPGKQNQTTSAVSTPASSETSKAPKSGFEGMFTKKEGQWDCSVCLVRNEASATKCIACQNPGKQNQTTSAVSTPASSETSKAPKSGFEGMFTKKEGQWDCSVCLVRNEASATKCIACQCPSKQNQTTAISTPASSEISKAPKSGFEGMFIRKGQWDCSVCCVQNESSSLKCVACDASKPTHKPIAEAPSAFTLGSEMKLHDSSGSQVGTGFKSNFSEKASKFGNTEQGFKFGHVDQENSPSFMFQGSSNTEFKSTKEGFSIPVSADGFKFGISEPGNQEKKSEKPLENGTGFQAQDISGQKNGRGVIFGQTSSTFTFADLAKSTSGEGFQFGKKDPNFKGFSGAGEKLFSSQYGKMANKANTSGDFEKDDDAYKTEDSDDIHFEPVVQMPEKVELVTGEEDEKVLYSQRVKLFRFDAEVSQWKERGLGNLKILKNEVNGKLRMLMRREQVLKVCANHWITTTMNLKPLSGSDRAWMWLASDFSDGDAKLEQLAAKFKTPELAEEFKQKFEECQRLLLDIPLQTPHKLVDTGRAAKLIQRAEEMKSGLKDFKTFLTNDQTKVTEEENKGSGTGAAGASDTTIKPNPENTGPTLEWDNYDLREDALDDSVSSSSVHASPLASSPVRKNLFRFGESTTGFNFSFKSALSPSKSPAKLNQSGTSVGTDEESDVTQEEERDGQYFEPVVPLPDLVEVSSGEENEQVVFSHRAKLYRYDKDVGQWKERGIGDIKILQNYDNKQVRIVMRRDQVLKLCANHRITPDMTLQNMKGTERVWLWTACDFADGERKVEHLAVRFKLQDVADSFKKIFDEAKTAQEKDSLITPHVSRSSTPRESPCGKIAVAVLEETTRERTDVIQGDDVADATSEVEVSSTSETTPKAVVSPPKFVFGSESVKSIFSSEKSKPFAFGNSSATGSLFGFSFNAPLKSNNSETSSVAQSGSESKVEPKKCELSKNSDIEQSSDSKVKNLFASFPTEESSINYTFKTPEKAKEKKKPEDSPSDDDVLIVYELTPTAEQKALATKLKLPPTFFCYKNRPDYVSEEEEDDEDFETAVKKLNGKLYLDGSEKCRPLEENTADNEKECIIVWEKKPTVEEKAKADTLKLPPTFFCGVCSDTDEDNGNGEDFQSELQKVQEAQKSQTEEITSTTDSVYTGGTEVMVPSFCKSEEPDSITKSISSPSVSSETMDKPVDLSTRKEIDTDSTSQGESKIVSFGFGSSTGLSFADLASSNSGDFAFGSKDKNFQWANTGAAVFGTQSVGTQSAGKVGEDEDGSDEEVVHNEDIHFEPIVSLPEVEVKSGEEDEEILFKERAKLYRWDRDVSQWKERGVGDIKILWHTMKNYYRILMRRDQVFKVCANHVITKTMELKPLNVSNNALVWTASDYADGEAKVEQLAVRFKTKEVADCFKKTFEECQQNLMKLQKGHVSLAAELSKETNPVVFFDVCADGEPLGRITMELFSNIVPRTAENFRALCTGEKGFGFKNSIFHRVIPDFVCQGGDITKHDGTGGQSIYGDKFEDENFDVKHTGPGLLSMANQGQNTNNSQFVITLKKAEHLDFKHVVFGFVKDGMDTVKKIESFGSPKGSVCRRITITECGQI
UniProt P31946: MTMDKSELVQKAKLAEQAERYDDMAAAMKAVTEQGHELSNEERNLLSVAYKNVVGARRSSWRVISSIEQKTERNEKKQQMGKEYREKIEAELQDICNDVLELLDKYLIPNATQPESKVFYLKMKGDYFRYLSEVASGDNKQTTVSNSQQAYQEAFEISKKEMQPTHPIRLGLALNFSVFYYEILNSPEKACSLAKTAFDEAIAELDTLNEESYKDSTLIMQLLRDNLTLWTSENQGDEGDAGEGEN
UniProt O00410: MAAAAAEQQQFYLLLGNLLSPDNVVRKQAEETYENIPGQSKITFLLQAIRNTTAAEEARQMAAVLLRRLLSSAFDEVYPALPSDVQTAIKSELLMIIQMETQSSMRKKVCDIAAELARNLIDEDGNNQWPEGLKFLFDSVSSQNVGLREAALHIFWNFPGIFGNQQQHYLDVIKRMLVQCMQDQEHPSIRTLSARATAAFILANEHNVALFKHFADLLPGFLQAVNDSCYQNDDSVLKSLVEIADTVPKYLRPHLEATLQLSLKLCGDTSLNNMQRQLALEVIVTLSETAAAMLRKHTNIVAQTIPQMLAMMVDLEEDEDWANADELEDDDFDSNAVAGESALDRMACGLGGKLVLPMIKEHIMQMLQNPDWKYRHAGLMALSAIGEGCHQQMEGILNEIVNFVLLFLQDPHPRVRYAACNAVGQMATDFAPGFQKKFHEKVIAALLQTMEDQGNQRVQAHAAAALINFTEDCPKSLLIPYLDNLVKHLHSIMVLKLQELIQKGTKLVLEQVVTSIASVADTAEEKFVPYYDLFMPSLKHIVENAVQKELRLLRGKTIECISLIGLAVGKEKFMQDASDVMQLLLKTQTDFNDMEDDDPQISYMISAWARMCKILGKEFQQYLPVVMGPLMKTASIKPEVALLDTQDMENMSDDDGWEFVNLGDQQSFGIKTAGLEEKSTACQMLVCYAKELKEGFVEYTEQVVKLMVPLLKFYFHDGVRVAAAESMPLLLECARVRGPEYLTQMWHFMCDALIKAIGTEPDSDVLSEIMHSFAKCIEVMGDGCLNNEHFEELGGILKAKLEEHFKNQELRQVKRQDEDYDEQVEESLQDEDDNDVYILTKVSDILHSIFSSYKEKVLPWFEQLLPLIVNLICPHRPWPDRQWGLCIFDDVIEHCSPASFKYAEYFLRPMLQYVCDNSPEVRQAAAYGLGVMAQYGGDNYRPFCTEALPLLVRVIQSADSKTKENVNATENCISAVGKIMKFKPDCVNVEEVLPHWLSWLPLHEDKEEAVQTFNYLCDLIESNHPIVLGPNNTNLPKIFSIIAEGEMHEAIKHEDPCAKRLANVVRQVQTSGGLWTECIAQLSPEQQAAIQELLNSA
UniProt Q96QT6: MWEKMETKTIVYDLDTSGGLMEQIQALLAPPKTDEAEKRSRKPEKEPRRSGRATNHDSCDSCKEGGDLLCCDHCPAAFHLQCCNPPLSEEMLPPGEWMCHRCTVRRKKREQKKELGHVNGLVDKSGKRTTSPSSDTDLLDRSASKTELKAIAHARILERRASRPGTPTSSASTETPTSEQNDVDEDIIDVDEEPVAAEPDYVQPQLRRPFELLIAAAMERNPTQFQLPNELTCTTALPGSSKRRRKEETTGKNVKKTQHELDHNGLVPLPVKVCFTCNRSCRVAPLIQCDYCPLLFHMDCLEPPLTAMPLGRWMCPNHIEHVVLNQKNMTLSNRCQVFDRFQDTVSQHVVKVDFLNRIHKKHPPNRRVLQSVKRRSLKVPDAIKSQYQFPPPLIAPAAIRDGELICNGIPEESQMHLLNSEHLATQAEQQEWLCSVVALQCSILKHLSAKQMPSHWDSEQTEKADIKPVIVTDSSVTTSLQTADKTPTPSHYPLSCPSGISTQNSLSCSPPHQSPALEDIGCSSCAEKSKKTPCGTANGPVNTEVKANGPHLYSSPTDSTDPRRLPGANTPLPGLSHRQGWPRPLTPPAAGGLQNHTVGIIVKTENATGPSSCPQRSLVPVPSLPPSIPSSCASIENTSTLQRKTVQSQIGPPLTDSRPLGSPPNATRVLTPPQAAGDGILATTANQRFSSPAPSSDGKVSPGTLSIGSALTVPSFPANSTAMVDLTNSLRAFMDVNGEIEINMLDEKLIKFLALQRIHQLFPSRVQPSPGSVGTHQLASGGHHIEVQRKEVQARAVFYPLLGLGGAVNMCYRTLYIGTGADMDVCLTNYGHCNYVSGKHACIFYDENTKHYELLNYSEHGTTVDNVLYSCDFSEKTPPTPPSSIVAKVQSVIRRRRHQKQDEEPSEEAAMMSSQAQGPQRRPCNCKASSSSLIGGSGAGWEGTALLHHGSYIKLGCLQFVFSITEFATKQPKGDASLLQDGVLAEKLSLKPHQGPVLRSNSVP
UniProt P62258: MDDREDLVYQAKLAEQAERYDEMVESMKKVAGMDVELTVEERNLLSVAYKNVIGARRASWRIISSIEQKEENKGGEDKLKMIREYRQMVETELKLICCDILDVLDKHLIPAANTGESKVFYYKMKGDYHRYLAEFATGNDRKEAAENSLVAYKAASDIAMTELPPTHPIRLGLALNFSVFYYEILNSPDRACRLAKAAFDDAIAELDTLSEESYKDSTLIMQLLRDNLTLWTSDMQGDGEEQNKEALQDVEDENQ
UniProt P63104: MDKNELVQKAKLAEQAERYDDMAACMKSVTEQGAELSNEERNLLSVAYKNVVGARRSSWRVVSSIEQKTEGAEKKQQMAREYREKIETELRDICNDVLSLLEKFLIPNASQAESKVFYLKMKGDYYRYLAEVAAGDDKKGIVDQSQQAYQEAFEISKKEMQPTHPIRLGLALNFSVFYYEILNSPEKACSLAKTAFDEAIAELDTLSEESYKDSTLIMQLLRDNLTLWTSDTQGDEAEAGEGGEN

Positions count from the first letter of the chain named. Results are given in words; binding and its absence hold for the method and conditions named. In cells and extracts the contact can be indirect. These calls come from enrichment with a bait or labelling near it, and not all partners need be listed. For part of these data: A no says only that the protein was not detected with the bait. For part of these data: Sequences can lack the tags named with a protein.

Test [1] addresses T1, BirA*-FLAG-GATAD1 S102A (human) (UniProt Q8WUU5).
T1 sequence: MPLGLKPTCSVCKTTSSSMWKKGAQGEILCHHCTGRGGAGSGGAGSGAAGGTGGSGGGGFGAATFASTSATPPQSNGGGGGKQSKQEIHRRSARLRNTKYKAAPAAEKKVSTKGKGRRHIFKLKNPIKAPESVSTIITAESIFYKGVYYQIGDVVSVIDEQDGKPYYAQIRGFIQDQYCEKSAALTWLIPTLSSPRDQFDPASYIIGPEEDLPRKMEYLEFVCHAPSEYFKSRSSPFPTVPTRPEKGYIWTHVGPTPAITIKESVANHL
As to the kind of experiment: affinity purification with mass spectrometry; FLAG immunoprecipitation (ANTI-FLAG M2 magnetic beads, 2 h) of BirA*-FLAG-GATAD1 variants from tetracycline-induced Flp-In-293 T-REx lysate (50 mM Tris HCl pH 7.4, 150 mM NaCl, 1 mM EDTA, 1% Triton X-100); control non-induced cells; label-free, triplicates.

The target in test [2] is T2, BirA*-FLAG-GATAD1 S102D (human) (UniProt Q8WUU5).
T2 sequence: T1 sequence with A102D
The test is described as above.

Test [3] addresses T3, BirA*-FLAG-GATAD1 S102P (human) (UniProt Q8WUU5).
T3 sequence: T1 sequence with A102P
Described as above.

Test [4] has as its target T4, BirA*-FLAG-GATAD1 wild-type (WT) (human) (UniProt Q8WUU5).
T4 sequence: T1 sequence with A102S
The test is described as above.

The target of test [5] is T5, GATAD1 S102P peptide on cellulose membrane (PRISMA) (human) (UniProt Q8WUU5).
T5 sequence (peptide): LRNTKYKPAPAAEKK
The experiment in a line: affinity purification with mass spectrometry; PRISMA alanine scanning: 15 GATAD1-derived peptides on a cellulose membrane in triplicates, pull-down from HEK-293T lysate, label-free quantification, one-way ANOVA; only the target purified.

In test [6] the target is T6, GATAD1 aspartic acid mutant (S102D) peptide on cellulose membrane (alanine scanning) (human) (UniProt Q8WUU5).
T6 sequence (peptide): LRNTKYKDAPAAEKK
The description is as above.

Test [7] deals with T7, GATAD1 pS102 peptide, position +3 alanine to glycine (alanine scanning) (human) (UniProt Q8WUU5).
T7 sequence (peptide, phosphoserine at 102): LRNTKYKSAPGAEKK
The test is described as above.

Test [8] addresses T8, GATAD1 pS102 peptide, position +4 alanine to glycine (alanine scanning) (human) (UniProt Q8WUU5).
T8 sequence (peptide, phosphoserine at 102): LRNTKYKSAPAGEKK
Described as above.

Test [9] concerns the target T9, GATAD1 pS102 peptide, position +5 to alanine (alanine scanning) (human) (UniProt Q8WUU5).
T9 sequence (peptide, phosphoserine at 102): LRNTKYKSAPAAAKK
Described as above.

Test [10] addresses T10, GATAD1 pS102 peptide, position -1 to alanine (alanine scanning) (human) (UniProt Q8WUU5).
T10 sequence (peptide, phosphoserine at 102): LRNTKYASAPAAEKK
Described as above.

The target of test [11] is T11, GATAD1 pS102 peptide, position -2 to alanine (alanine scanning) (human) (UniProt Q8WUU5).
T11 sequence (peptide, phosphoserine at 102): LRNTKAKSAPAAEKK
Described as above.

Test [12] addresses T12, GATAD1 pS102 peptide, position -3 to alanine (alanine scanning) (human) (UniProt Q8WUU5).
T12 sequence (peptide, phosphoserine at 102): LRNTAYKSAPAAEKK
Described as above.

Test [13] has as its target T13, GATAD1 pS102 peptide, position -4 to alanine (alanine scanning) (human) (UniProt Q8WUU5).
T13 sequence (peptide, phosphoserine at 102): LRNAKYKSAPAAEKK
The test is described as above.

The target in test [14] is T14, GATAD1 pS102 peptide, position -5 to alanine (alanine scanning) (human) (UniProt Q8WUU5).
T14 sequence (peptide, phosphoserine at 102): LRATKYKSAPAAEKK
The description is as above.

The target of test [15] is T15, GATAD1 pS102 peptide, proline in position +2 to alanine (alanine scanning) (human) (UniProt Q8WUU5).
T15 sequence (peptide, phosphoserine at 102): LRNTKYKSAAAAEKK
Described as above.

In test [16] the target is T4, BirA*-FLAG-GATAD1 wild-type (WT) (human). As to the kind of experiment: proximity labelling; BioID: BirA*-FLAG-GATAD1 variants in Flp-In-293 cells, tetracycline 24 h, 50 μM biotin overnight, streptavidin-sepharose enrichment, SILAC with label swap.

In the case of RBBP4 (from UniProt Q09028 1-425), the binding entry in test [1], in test [2], in test [3] and in test [4] was “binds” in each case.
Consider RANBP2 (from UniProt P49792 1-3224), for which the binding result in test [5] and in test [6] was “binds” throughout.
With “14-3-3 beta/alpha (from UniProt P31946 1-246)”, the binding entry in test [5] is “no binding”; in [6], “no binding”; in test [7], “binds”; in [8] it was “binds”; in [9], “binds”; in test [10], “binds”. The binding result in [11] was “binds”; in test [12], “binds”; in test [13] it was “binds”; in test [14] it was “binds”; in test [15], “binds”; in test [1], “no binding”. In addition, the binding entry in [2], in test [3] and in [4] was “no binding” each time.
Take TNPO1 (from UniProt Q92973 1-898): the binding result in [5] and in test [6] was “binds” each time.
Consider IPO5 (from UniProt O00410 1-1097), for which the binding result in test [5] and in [6] was “binds” in each case.
As to PHF12 (from UniProt Q96QT6 1-1004), the binding entry in test [16], in test [1], in test [2], in test [3] and in test [4] was “binds” in each case.
With “14-3-3 epsilon (endogenous) (from UniProt P62258 1-255)”, the binding entry in test [5] was “no binding”; in test [6], “no binding”; in [7], “binds”; in test [8], “binds”; in [9] it was “binds”; in [10], “binds”. Further, the binding result in test [11] is “binds”; in [12], “binds”; in test [13], “binds”; in test [14] it was “binds”; in [15], “binds”; in [1], “no binding”. For the same substance, the binding result in test [2], in test [3] and in test [4] was “no binding” each time.
In the case of 14-3-3 zeta (from UniProt P63104 1-245), the binding result is “no binding” in [5]; “no binding” in [6]; “binds” in test [7]; “binds” in test [8]; “binds” in test [9]; “binds” in [10]. Also, the binding entry was “binds” in test [11]; “binds” in [12]; “binds” in test [13]; “binds” in [14]; “binds” in test [15]; “no binding” in test [1]. In addition, the binding entry in test [2], in test [3] and in [4] was “no binding” throughout.
